This note sets out measurements from patent US5420288A, “Electroluminescent device comprising oxadiazole compounds luminescent material, oxadiazole compounds for the device, and method of producing oxadiazole compounds” (Ricoh Company, Ltd., priority 1992, dated 1995).

Each structure is given as a SMILES string. Some compounds share one wording; it may come from a single statement.

Series [1] in a line: Electroluminescent device (ITO / stilbene derivative (20) hole-transporting luminescent layer / electron-transporting layer / Mg-Ag), Examples I-6, I-9, Comparative I-1, I-2. The settings on record: for color of light emission / emission wavelength peak: stilbene derivative (20) luminescent layer.
Series [2] in a line: Three-layered electroluminescent device (ITO / triphenyl amine (19) / compound (26) electroluminescent layer / electron-transporting layer varied / Mg-Ag), Examples I-11, I-23 to I-34, Comparative I-3 to I-5. To be noted: for luminance after continuous driving for one hour: constant current 30 mA/cm^2, one hour; for color of light emission / emission wavelength peak: electron-transporting layer material varied; for Luminance / Voltage: Table 9, Current Density J = 30 mA/cm^2.

The nature of series [3]: Three-layered electroluminescent device with electroluminescent layer compound varied and oxadiazole No. 78 electron-transporting layer, Examples I-12 to I-22. To be noted: Table 8; for Luminance / Voltage: Current Density J = 30 mA/cm^2.
Series [4] can be described thus: Electroluminescent device with diamine derivative (37) hole-transporting layer and Al electrode, preserved at room temperature, Application Example II-1 and Comparative Example II-1.
The nature of series [5]: Electroluminescent device (ITO / triphenyl amine (19) hole-transporting layer / oxadiazole electroluminescent layer / Mg-Ag), Examples I-1 to I-5. To be noted: for luminescent color: drive voltage of 20 V or less.
Setting [6] is: constant current 30 mA/cm^2, one hour.

For `CC(C)(C)c1ccc(-c2nnc(-c3ccc(-c4ccccc4)cc3)o2)cc1` [(23), reference compound], the “light emission after continuous driving for one hour” value in series [1] (setting [6]) is “no light emission was observed any longer”. In addition, in series [1], the “color of light emission” value is reported as “clear green light emission” and the emission wavelength peak is recorded as 520 nm. In addition, in series [2], the “luminance after continuous driving for one hour” value (“luminance … for one hour” below) was not above 20 cd/m^2, the “color of light emission” value is “clear blue green light emission” and the emission wavelength peak is 485 nm.
Take `CC(C)(C)c1ccc(-c2nnc(-c3ccc(-c4nnc(-c5ccc(C(C)(C)C)cc5)o4)cc3)o2)cc1` [(24), reference compound]: the “luminance … for one hour” value in series [1] (setting [6]) is not above 50 cd/m^2. Further, in series [1], the “color of light emission” value was “clear green light emission” and the emission wavelength peak is reported as 522 nm. Moreover, in series [2], the “luminance … for one hour” value is not above 60 cd/m^2, the “color of light emission” value is reported as “clear blue green light emission” and the emission wavelength peak amounted to 483 nm.
With `Cc1ccc(N(c2ccc(C3(c4ccc(N(c5ccc(C)cc5)c5ccc6ccc7cccc8ccc5c6c78)cc4)c4ccccc4-c4ccccc43)cc2)c2ccc3ccc4cccc5ccc2c3c45)cc1` [(25)], in series [3], the “Wavelength at Luminescent Peak” value is given as 512 nm; the “Wavelength at Luminescent Peak, sub-peak” value is on record as 485 nm; the Luminance was determined as 670 cd/m^2; the Voltage stood at 6.7 V.
As to `c1ccc(-c2ccc(-c3nnc(-c4cc(-c5nnc(-c6ccc(-c7ccccc7)cc6)o5)cc(-c5nnc(-c6ccc(-c7ccccc7)cc6)o5)c4)o3)cc2)cc1` [(27), reference compound], in series [2], the “color of light emission” value is “green light emission” and the emission wavelength peak came to 499 nm.
Take `COc1ccccc1N(c1cccc(N(c2ccccc2OC)c2ccc3ccc4cccc5ccc2c3c45)c1)c1ccc2ccc3cccc4ccc1c2c34` [(28)]: in series [3], the “Wavelength at Luminescent Peak” value amounted to 494 nm, the Luminance came out at 400 cd/m^2 and the Voltage was 6.2 V.
For `Cc1ccc(N(c2cccc(N(c3ccc(C)cc3)c3ccc4ccc5cccc6ccc3c4c56)c2)c2ccc3ccc4cccc5ccc2c3c45)cc1` [(29)], in series [3], the “Wavelength at Luminescent Peak” value is given as 487 nm, the Luminance was determined as 340 cd/m^2 and the Voltage was found to be 7.0 V.
The matching figures for `COc1ccc(N(c2cccc(N(c3ccc(OC)cc3)c3ccc4ccc5cccc6ccc3c4c56)c2)c2ccc3ccc4cccc5ccc2c3c45)cc1` [(30)]: 512 nm, 750 cd/m^2 and 6.9 V.
For `CCCCc1ccc(N(c2cccc(N(c3ccc(CCCC)cc3)c3ccc4ccc5cccc6ccc3c4c56)c2)c2ccc3ccc4cccc5ccc2c3c45)cc1` [(31)] the same measures were 485 nm, 610 cd/m^2 and 7.2 V.
The matching figures for `CC(C)Cc1ccc(N(c2cccc(N(c3ccc(CC(C)C)cc3)c3ccc4ccc5cccc6ccc3c4c56)c2)c2ccc3ccc4cccc5ccc2c3c45)cc1` [(32)]: 477 nm, 375 cd/m^2 and 6.9 V.
For the compound `CCC(C)c1ccc(N(c2cc(C)cc(N(c3ccc(C(C)CC)cc3)c3ccc4ccc5cccc6ccc3c4c56)c2)c2ccc3ccc4cccc5ccc2c3c45)cc1` (stereo not drawn) [(33)], in series [3], the “Wavelength at Luminescent Peak” value worked out at 480 nm, the Luminance is recorded as 620 cd/m^2 and the Voltage came to 6.2 V.
For `COc1cccc(N(c2cccc(N(c3cccc(OC)c3)c3ccc4ccc5cccc6ccc3c4c56)c2)c2ccc3ccc4cccc5ccc2c3c45)c1` [(34)], in series [3], the “Wavelength at Luminescent Peak” value turned out to be 488 nm, the Luminance is on record as 561 cd/m^2 and the Voltage is 9.5 V.
The matching figures for `Cc1ccc(N(c2ccc(-c3ccc(N(c4ccc(C)cc4)c4ccc5ccc6cccc7ccc4c5c67)cc3)cc2)c2ccc3ccc4cccc5ccc2c3c45)cc1` [(35)]: 508 nm, 420 cd/m^2 and 8.6 V.
For `CC(C)(C)c1ccc(N(c2cccc(N(c3ccc(C(C)(C)C)cc3)c3ccc4ccc5cccc6ccc3c4c56)c2)c2ccc3ccc4cccc5ccc2c3c45)cc1` [(36)] the same measures were 480 nm, 800 cd/m^2 and 11.2 V.
`CCN(CC)c1ccc(-c2nnc(-c3ccc(C(=O)OC)cc3)o2)cc1` [(38), reference compound]: in series [4] (25 V, 50 mA/cm^2), the “color of light emission” value is listed as “green light emission”. For the same compound, in series [4] (room temperature, one month), the “light emission after preservation” value is “the light emission was no longer observed”.
Regarding `CCN(CC)c1ccc(-c2nnc(-c3ccc(Oc4ccc(-c5nnc(-c6ccc(N(CC)CC)cc6)o5)cc4)cc3)o2)cc1` [compound 2], the luminescent color entry in series [5] is “clear blue light”. For the same compound, the “drive voltage at which light was emitted” value in series [5] (electroluminescent layer material) is recorded as not above 20 V.
For the compound `Clc1ccc(C=Cc2nnc(-c3ccc(C=Cc4ccc(-c5nnc(C=Cc6ccc(Cl)cc6)o5)cc4)cc3)o2)cc1` [compound 13], the luminescent color result in series [5] is on record as “blue”.
As for `c1ccc2c(-c3nnc(-c4ccc(CCc5ccc(-c6nnc(-c7cccc8ccccc78)o6)cc5)cc4)o3)cccc2c1` [compound 23], in series [2], the Luminance is on record as 10 cd/m^2 and the Voltage stood at 12.0 V.
Compound `c1ccc(-c2ccc(-c3nnc(-c4ccc(CCc5ccc(-c6nnc(-c7ccc(-c8ccccc8)cc7)o6)cc5)cc4)o3)cc2)cc1` [compound 25] displayed a Luminance in series [1] (11.2 V, current density of 30 mA/cm^2) of 230 cd/m^2. The emission spectrum center in series [1] (Example I-6) is listed as 520 nm. The compound further registered a drive voltage in series [1] (current density of 30 mA/cm^2) of 11.2 V. Moreover, the “color of light emission” value in series [1] was “green light”. In series [2], this compound had a Luminance of 20 cd/m^2 and a Voltage of 18.0 V.
In series [2], `COc1ccc(-c2nnc(-c3ccc(CCc4ccc(-c5nnc(-c6ccc(OC)cc6)o5)cc4)cc3)o2)cc1` [compound 26] came in with a Luminance of 25 cd/m^2 and a Voltage of 16.0 V.
In series [2], `Clc1ccc(-c2nnc(-c3ccc(CCc4ccc(-c5nnc(-c6ccc(Cl)cc6)o5)cc4)cc3)o2)cc1` [compound 27] gave a Luminance of 15 cd/m^2 and a Voltage of 20.0 V.
Turning to `CC(C)(C)c1ccc(-c2nnc(-c3ccc(-c4ccc(CCOCCc5ccc(-c6ccc(-c7nnc(-c8ccc(C(C)(C)C)cc8)o7)cc6)cc5)cc4)cc3)o2)cc1` [compound 44], in series [5], the luminescent color entry was “blue violet”.
Same read-out and setting: the result for `CCN(CC)c1ccc(-c2nnc(C=Cc3ccc(C=Cc4nnc(-c5ccc(N(CC)CC)cc5)o4)cc3)o2)cc1` [compound 49] reads “blue green”; that for `C(=Cc1nnc(-c2ccccc2)o1)c1ccc(-c2ccc(C=Cc3nnc(-c4ccccc4)o3)cc2)cc1` [compound 57], “blue green”.
Consider `Cc1ccc(-c2nnc(-c3ccc(C(c4ccc(-c5nnc(-c6ccc(C)cc6)o5)cc4)(C(F)(F)F)C(F)(F)F)cc3)o2)cc1` [compound 68], for which, in series [2], the Luminance was 540 cd/m^2 and the Voltage is given as 11.0 V.
On to `Cc1ccccc1-c1nnc(-c2ccc(C(c3ccc(-c4nnc(-c5ccccc5C)o4)cc3)(C(F)(F)F)C(F)(F)F)cc2)o1` [compound 70], for which, in series [2], the Luminance stood at 660 cd/m^2 and the Voltage is listed as 12.8 V.
The matching figures for `FC(F)(F)C(c1ccc(-c2nnc(-c3ccc(Cl)cc3)o2)cc1)(c1ccc(-c2nnc(-c3ccc(Cl)cc3)o2)cc1)C(F)(F)F` [compound 71]: 330 cd/m^2 and 12.6 V.
Regarding `COc1ccc(-c2nnc(-c3ccc(C(c4ccc(-c5nnc(-c6ccc(OC)cc6)o5)cc4)(C(F)(F)F)C(F)(F)F)cc3)o2)cc1` [compound 79], in series [2], the Luminance is recorded as 640 cd/m^2 and the Voltage came to 10.2 V.
In series [2], `FC(F)(F)C(c1ccc(-c2nnc(-c3cccc4ccccc34)o2)cc1)(c1ccc(-c2nnc(-c3cccc4ccccc34)o2)cc1)C(F)(F)F` [compound 89] had a Luminance of 670 cd/m^2 and a Voltage of 10.5 V.
For `FC(F)(F)C(c1ccc(-c2nnc(-c3ccc4ccccc4c3)o2)cc1)(c1ccc(-c2nnc(-c3ccc4ccccc4c3)o2)cc1)C(F)(F)F` [compound 91] the same measures were 840 cd/m^2 and 12.5 V.
`FC(F)(F)C(c1ccc(-c2nnc(-c3ccccc3-c3ccccc3)o2)cc1)(c1ccc(-c2nnc(-c3ccccc3-c3ccccc3)o2)cc1)C(F)(F)F` [compound 92]: in series [2], the Luminance is 568 cd/m^2 and the Voltage was found to be 13.5 V.
The matching figures for `COc1ccccc1-c1nnc(-c2ccc(C(c3ccc(-c4nnc(-c5ccccc5OC)o4)cc3)(C(F)(F)F)C(F)(F)F)cc2)o1` [compound 93]: 420 cd/m^2 and 14.3 V.
